Test results as given in US20020035243A1 (priority 1998, published 2002).
* marks the point of attachment. Boc = CC(C)(C)OC(=O)*; OtBu = CC(C)(C)O*

Columns and labels:
[1] = general procedure: peptide synthesis; H-Asp-chlorotrityl resin; H-Leu-chlorotrityl resin; aminomethyl resin with Fmoc-4-methoxy-4'-(carboxypropoxy)benzhydryla; TBTU/collidine; details: for conjugation yield: conjugation step
[2] = general procedure: peptide synthesis; H-Leu-chlorotrityl resin; TBTU/collidine; details: whole synthesis, scale 15 mmol
[3] = general procedure: peptide synthesis; aminomethyl resin with benzhydrylamine linker; TBTU/collidine; details: whole synthesis, scale 9.0 mmol
[4] = general procedure: peptide synthesis; H-Asp-chlorotrityl resin; TBTU/collidine; details: whole synthesis, scale 9.8 mmol

H-Glu-Asp-Tyr-His-Ser-Leu-Tyr-Asn-Ser-His-Leu-Lys(ε-D,L-6,8-dithiooctanamide)-NH—CH2CH2—NH-octanylamide (EDYHSLYNSHLK; dithiooctanoyl lysine; ethylenediamine-octanoylamide; printed: Glu-Asp-Tyr-His-Ser-Leu-Tyr-Asn-Ser-His-Leu-Lys)
conjugation yield [1]: 20%

D,L-6,8-Dithiooctanoylamide-Lys(ε-Asp-Glu-Glu-Glu-Ac)-NH—CH2CH2—NH—C═O—(CH2)14—CH3
conjugation yield [1]: 50%

Fmoc-Glu(t-but)-Asp(t-but)-Tyr(t-but)-His(Boc)-Ser(t-but)-Leu-Tyr(t-but)-Asn(Trt)-Ser(t-but)-His(Boc)-Leu-OH
isolated mass [2]: 5.3 g
isolated yield [2]: 13%

(Ac-Glu-Glu-Glu-Asp-Lys(ε-6,8-dimercaptooctanamide)-NH—CH2—CH2—NH—C═O—(CH2)6—CH3)
step yield ([1]; late stage modification step): 49%

Ac-Leu-Gly-Asp[NH(CH2)5—NH—CO-biotin]-Lys(ε-D,L-6,8-dithio-octanamide)-NH—CH2CH2—NH-octanoylamide
conjugation yield [1]: 50%

H-Lys(ε-Asp-Glu-Glu-Glu-Ac)-NH—CH2CH2—NH—C═O—(CH2)14—CH3
step yield ([1]; coupling step): 75%

Ac-E(OtBu)E(OtBu)E(OtBu)D(OtBu)K(Boc)-NH2
isolated mass [3]: 3.97 g
isolated yield [3]: 64.9%

Ac-Glu-Glu-Glu-Asp-Lys(ε-D,L-6,8-dithiooctanoylamide)-NH—CH2—CH2—NH—C═O—(CH2)6—CH3 (EEEDK; N-acetyl; dithiooctanoyl lysine; ethylenediamine-octanoylamide; printed: Glu-Glu-Glu-Asp-Lys)
conjugation yield [1]: 57.6%

Ac-Glu(OtBu)-Glu(OtBu)-Glu(OtBu)-Asp(OtBu)-OH
isolated mass [4]: 6.02 g
isolated yield [4]: 70%

Ac-Glu-Glu-Glu-Asp-Lys(ε-D,L-6,8-dithiooctanoylamide)-NH2 (EEEDK; N-acetyl; dithiooctanoyl lysine; C-terminal amide; printed: Glu-Glu-Glu-Asp-Lys)
conjugation yield [1]: 37.7%
